These are yes or no findings as the source states them, for the method shown. Binding seen in cells or lysates may run through a third protein. Here binding means that the protein was enriched with, or labelled near, the bait; the list need not be complete. Where a sequence is shown, tags or fusion partners need not be part of it.
B1: tRNA methyltransferase Ncl1 (protein, UniProt P38205 1-684)
chain: MARRKNFKKGNKKTFGARDDSRAQKNWSELVKENEKWEKYYKTLALFPEDQWEEFKKTCQAPLPLTFRITGSRKHAGEVLNLFKERHLPNLTNVEFEGEKIKAPVELPWYPDHLAWQLDVPKTVIRKNEQFAKTQRFLVVENAVGNISRQEAVSMIPPIVLEVKPHHTVLDMCAAPGSKTAQLIEALHKDTDEPSGFVVANDADARRSHMLVHQLKRLNSANLMVVNHDAQFFPRIRLHGNSNNKNDVLKFDRILCDVPCSGDGTMRKNVNVWKDWNTQAGLGLHAVQLNILNRGLHLLKNNGRLVYSTCSLNPIENEAVVAEALRKWGDKIRLVNCDDKLPGLIRSKGVSKWPVYDRNLTEKTKGDEGTLDSFFSPSEEEASKFNLQNCMRVYPHQQNTGGFFITVFEKVEDSTEAATEKLSSETPALESEGPQTKKIKVEEVQKKERLPRDANEEPFVFVDPQHEALKVCWDFYGIDNIFDRNTCLVRNATGEPTRVVYTVCPALKDVIQANDDRLKIIYSGVKLFVSQRSDIECSWRIQSESLPIMKHHMKSNRIVEANLEMLKHLLIESFPNFDDIRSKNIDNDFVEKMTKLSSGCAFIDVSRNDPAKENLFLPVWKGNKCINLMVCKEDTHELLYRIFGIDANAKATPSAEEKEKEKETTESPAETTTGTSTEAPSAAN
B2: Rcl1 (protein, UniProt Q08096 1-367)
chain: MSSSAPKYTTFQGSQNFRLRIVLATLSGKPIKIEKIRSGDLNPGLKDYEVSFLRLIESVTNGSVIEISYTGTTVIYRPGIIVGGASTHICPSSKPVGYFVEPMLYLAPFSKKKFSILFKGITASHNDAGIEAIKWGLMPVMEKFGVRECALHTLKRGSPPLGGGEVHLVVDSLIAQPITMHEIDRPIISSITGVAYSTRVSPSLVNRMIDGAKKVLKNLQCEVNITADVWRGENSGKSPGWGITLVAQSKQKGWSYFAEDIGDAGSIPEELGEKVACQLLEEISKSAAVGRNQLPLAIVYMVIGKEDIGRLRINKEQIDERFIILLRDIKKIFNTEVFLKPVDEADNEDMIATIKGIGFTNTSKKIA
B3: nuclease Rrp44 (protein, UniProt Q08162 1-1001)
chain: MSVPAIAPRRKRLADGLSVTQKVFVRSRNGGATKIVREHYLRSDIPCLSRSCTKCPQIVVPDAQNELPKFILSDSPLELSAPIGKHYVVLDTNVVLQAIDLLENPNCFFDVIVPQIVLDEVRNKSYPVYTRLRTLCRDSDDHKRFIVFHNEFSEHTFVERLPNETINDRNDRAIRKTCQWYSEHLKPYDINVVLVTNDRLNREAATKEVESNIITKSLVQYIELLPNADDIRDSIPQMDSFDKDLERDTFSDFTFPEYYSTARVMGGLKNGVLYQGNIQISEYNFLEGSVSLPRFSKPVLIVGQKNLNRAFNGDQVIVELLPQSEWKAPSSIVLDSEHFDVNDNPDIEAGDDDDNNESSSNTTVISDKQRRLLAKDAMIAQRSKKIQPTAKVVYIQRRSWRQYVGQLAPSSVDPQSSSTQNVFVILMDKCLPKVRIRTRRAAELLDKRIVISIDSWPTTHKYPLGHFVRDLGTIESAQAETEALLLEHDVEYRPFSKKVLECLPAEGHDWKAPTKLDDPEAVSKDPLLTKRKDLRDKLICSIDPPGCVDIDDALHAKKLPNGNWEVGVHIADVTHFVKPGTALDAEGAARGTSVYLVDKRIDMLPMLLGTDLCSLKPYVDRFAFSVIWELDDSANIVNVNFMKSVIRSREAFSYEQAQLRIDDKTQNDELTMGMRALLKLSVKLKQKRLEAGALNLASPEVKVHMDSETSDPNEVEIKKLLATNSLVEEFMLLANISVARKIYDAFPQTAMLRRHAAPPSTNFEILNEMLNTRKNMSISLESSKALADSLDRCVDPEDPYFNTLVRIMSTRCMMAAQYFYSGAYSYPDFRHYGLAVDIYTHFTSPIRRYCDVVAHRQLAGAIGYEPLSLTHRDKNKMDMICRNINRKHRNAQFAGRASIEYYVGQVMRNNESTETGYVIKVFNNGIVVLVPKFGVEGLIRLDNLTEDPNSAAFDEVEYKLTFVPTNSDKPRDVYVFDKVEVQVRSVMDPITSKRKAELLLK

Protein sequences, listed by entry. Tags and fused reporters are not part of them.
UniProt P15646: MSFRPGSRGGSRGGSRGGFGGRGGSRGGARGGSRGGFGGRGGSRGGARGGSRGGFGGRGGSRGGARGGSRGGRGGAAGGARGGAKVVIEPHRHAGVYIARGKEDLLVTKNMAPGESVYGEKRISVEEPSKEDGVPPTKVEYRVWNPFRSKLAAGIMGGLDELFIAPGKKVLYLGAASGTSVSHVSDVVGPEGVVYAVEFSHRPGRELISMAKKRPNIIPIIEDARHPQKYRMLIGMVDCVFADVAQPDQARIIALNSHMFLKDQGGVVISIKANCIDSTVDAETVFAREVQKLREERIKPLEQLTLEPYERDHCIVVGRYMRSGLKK
UniProt P41819: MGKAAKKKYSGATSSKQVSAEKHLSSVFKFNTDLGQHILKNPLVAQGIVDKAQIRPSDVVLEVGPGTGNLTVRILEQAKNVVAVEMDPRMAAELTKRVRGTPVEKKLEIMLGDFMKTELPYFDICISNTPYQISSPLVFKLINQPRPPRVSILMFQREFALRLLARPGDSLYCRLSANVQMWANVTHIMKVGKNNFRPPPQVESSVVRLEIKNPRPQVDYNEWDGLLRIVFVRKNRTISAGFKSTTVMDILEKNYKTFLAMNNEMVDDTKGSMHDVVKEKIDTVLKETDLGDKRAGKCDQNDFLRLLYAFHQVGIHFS

Columns and labels:
[1] = target: T1, Tsr1-GFP (S. cerevisiae) (UniProt Q07381); assay: affinity purification with mass spectrometry; GFP-tagged baits purified with GFP-Trap from GAL::HA-rrp12 cells shifted to glucose-containing media for 12 hours (Rrp12 depleted; columns 5 to 8)
T1 sequence: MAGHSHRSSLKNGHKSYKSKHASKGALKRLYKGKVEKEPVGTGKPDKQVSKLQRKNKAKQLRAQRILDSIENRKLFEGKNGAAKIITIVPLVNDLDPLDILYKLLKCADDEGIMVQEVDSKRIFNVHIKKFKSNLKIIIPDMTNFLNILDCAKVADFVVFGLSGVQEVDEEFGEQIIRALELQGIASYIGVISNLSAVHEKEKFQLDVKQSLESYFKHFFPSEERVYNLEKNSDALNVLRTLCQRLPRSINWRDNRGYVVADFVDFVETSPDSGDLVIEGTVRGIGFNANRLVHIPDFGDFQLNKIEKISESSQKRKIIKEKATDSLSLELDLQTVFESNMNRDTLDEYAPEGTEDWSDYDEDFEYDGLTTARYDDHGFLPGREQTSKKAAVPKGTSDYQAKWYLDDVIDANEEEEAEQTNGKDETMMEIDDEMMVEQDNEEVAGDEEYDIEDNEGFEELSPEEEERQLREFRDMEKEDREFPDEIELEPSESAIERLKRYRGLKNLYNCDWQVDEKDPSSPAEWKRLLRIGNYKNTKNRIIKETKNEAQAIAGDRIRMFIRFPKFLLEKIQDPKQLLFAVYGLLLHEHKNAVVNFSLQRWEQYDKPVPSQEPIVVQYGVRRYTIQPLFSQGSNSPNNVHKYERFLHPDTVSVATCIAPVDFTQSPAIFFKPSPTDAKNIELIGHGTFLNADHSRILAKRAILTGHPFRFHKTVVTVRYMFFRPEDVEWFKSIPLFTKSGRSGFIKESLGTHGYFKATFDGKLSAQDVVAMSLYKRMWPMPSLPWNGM

[2] = target: T2, Nob1-GFP (S. cerevisiae) (UniProt Q08444); assay: as above
T2 sequence: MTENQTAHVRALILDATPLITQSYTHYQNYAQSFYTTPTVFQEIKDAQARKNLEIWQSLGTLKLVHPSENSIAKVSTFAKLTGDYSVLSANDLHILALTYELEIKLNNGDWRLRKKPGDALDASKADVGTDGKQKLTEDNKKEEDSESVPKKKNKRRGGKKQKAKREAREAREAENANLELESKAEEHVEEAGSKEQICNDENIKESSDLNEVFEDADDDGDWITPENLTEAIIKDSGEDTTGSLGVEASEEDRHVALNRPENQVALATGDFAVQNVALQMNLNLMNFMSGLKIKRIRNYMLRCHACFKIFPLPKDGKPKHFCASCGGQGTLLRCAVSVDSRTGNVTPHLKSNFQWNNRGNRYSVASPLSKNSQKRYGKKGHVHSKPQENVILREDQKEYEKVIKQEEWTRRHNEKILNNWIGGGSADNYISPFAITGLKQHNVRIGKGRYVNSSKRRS

[3] = target: T3, Pwp2-GFP (S. cerevisiae) (UniProt P25635); assay: affinity purification with mass spectrometry; Pwp2-GFP complexes from Rrp12-depleted cells, gel bands identified by mass spectrometry; compared with control cells
T3 sequence: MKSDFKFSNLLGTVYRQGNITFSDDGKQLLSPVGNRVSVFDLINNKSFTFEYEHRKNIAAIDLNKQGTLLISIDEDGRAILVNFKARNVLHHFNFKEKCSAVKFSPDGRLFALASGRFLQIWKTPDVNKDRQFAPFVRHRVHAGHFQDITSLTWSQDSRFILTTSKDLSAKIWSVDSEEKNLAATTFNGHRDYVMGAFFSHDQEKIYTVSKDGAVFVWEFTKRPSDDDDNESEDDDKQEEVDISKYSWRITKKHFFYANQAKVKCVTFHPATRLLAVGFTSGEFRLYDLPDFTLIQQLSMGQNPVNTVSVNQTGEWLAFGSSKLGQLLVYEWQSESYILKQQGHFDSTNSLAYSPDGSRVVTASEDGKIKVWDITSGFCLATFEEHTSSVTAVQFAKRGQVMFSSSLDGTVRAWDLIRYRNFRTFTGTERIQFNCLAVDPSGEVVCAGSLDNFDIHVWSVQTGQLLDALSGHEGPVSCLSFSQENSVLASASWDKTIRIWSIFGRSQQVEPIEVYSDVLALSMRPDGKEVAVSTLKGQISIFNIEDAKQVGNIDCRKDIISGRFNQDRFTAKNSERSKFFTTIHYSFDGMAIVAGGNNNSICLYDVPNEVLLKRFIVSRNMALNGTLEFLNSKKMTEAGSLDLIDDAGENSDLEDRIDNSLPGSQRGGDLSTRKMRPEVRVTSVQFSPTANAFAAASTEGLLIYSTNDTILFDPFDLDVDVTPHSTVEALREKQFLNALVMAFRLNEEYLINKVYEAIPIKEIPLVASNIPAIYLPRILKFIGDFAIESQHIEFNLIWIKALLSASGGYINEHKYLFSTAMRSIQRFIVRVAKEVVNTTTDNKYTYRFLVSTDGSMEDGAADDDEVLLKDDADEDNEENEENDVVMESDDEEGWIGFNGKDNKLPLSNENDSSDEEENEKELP

[4] = target: T4, Enp1-GFP (S. cerevisiae) (UniProt P38333); assay: affinity purification with mass spectrometry; GFP-tagged baits purified with GFP-Trap from GAL::HA-rrp12 cells shifted to glucose-containing media for 12 hours (Rrp12 depleted; columns 5 to 8)
T4 sequence: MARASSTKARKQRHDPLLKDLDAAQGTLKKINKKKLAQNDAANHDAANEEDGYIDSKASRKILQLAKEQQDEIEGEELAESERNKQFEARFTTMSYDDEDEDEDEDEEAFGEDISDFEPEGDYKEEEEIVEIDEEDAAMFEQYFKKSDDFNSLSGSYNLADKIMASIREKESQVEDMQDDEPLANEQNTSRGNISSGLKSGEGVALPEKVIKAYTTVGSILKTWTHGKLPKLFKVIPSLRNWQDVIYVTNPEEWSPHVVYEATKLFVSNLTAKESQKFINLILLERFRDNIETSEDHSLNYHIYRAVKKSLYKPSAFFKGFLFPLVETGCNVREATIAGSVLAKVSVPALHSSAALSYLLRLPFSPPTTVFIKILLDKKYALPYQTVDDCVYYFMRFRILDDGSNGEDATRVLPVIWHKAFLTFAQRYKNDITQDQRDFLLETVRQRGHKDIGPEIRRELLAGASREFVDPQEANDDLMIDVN

| Molecule | binding [1] | binding [2] | binding [3] | binding [4] |
| --- | --- | --- | --- | --- |
| Nop1 (from UniProt P15646 1-327) | binds | binds |  |  |
| Dim1 (endogenous) (from UniProt P41819 1-318) |  |  | binds |  |
| B1 | binds |  |  | binds |
| B2 |  |  | binds |  |
| B3 |  |  | binds |  |
